Reference: patent US20210386725A1, “METHOD FOR INHIBITING CORONAVIRUS INFECTION AND REPLICATION” (CHANG GUNG UNIVERSITY, priority 2020, published 2021)
At least one structure is not confirmed: it was looked up by name or label, or the drawing left a doubt.

Columns and labels:
SARS-CoV-2 [1] = assay type: cell-based; conditions: Vero E6 cells, 20 μM pretreatment and in overlay, 100 P.F.U., 3 d.p.i., compared to control group
SARS-CoV-2 [2] = assay type: cell-based; conditions: LLC-MK2 cells, 20 μM pretreatment 1 hour, m.o.i. 0.01, 1-4 d.p.i., compared to DMSO control

SMILES: CCc1ccc(CCOc2ccc(CC3SC(=O)NC3=O)cc2)nc1 (stereo not shown) [pioglitazone]
- number of the viral plaques of SARS-CoV-2 (SARS-CoV-2 [1]): reduced
- size of the viral plaques of SARS-CoV-2 (SARS-CoV-2 [1]): reduced
- RNA expression of E gene of SARS-CoV-2 (log RNA copy number/mL) (SARS-CoV-2 [2]): significant reduction
- RNA expression of RdRp gene of SARS-CoV-2 (log RNA copy number/mL) (SARS-CoV-2 [2]): significant reduction
